PubChem BioAssay AID1259425 – University of Nebraska Medical Center, 2018
Here is an unselected part of about 14,000 reagents tested. Some reagents were tested in more than one well and are listed for each. Further read-outs or replicates are left out here. The record does not give: the time to read-out.

- Purpose: 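Find knockdowns that reproduce the gene expression pattern seen when KSR1 is lost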 (primary screen)
- Cells: HCT116 human colon cancer cells
- Reagents: siRNA pool against human genes, 50 nM siRNA
- Read-out: 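mRNA of six signature genes measured together by branched-DNA assay after 50 nM siRNA pool, blank removed, divided by geometric mean of two housekeeping genes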
- Scale: BNIP3L mRNA: higher = more BNIP3L transcript after knockdown

| Target gene | BNIP3L mRNA, set 1 |
| --- | --- |
| TNNI3 (troponin I3, cardiac type) | 0.0567 |
| FSTL1 (follistatin like 1) | 0.154 |
| TMEM184B (transmembrane protein 184B) | 0.0957 |
| ALX1 (ALX homeobox 1) | 0.0484 |
| VARS1 (valyl-tRNA synthetase 1) | 0.0567 |
| LAGE3 (L antigen family member 3) | 0.0983 |
| SMURF1 (SMAD specific E3 ubiquitin protein ligase 1) | 0.0725 |
| GDAP1L1 | 0.128 |
| APOO (apolipoprotein O) | 0.0837 |
| TIPIN (TIMELESS interacting protein) | 0.116 |
| PTPRK (protein tyrosine phosphatase receptor type K) | 0.0673 |
| IFNAR2 (interferon alpha and beta receptor subunit 2) | 0.0726 |
| ATE1 (arginyltransferase 1) | 0.187 |
| GPR32 (G protein-coupled receptor 32) | 0.228 |
| C2CD3 (C2 domain containing 3 centriole elongation regulator) | 0.133 |
| ATP7B (ATPase copper transporting beta) | 0.127 |
| LMX1A (LIM homeobox transcription factor 1 alpha) | 0.0906 |
| PMCHL2 (pro-melanin concentrating hormone like 2 (pseudogene)) | 0.199 |
| HAUS3 (HAUS augmin like complex subunit 3) | 0.118 |
| LGALS7 (galectin 7) | 0.137 |
| DRC4 (dynein regulatory complex subunit 4) | 0.0898 |
| PRTFDC1 (phosphoribosyl transferase domain containing 1) | 0.0532 |

Single entries from above:
Value for APOO (apolipoprotein O) under “BNIP3L mRNA, set 1”: 0.0837
Under “BNIP3L mRNA, set 1”, GPR32 (G protein-coupled receptor 32) has 0.228
Under “BNIP3L mRNA, set 1”, DRC4 (dynein regulatory complex subunit 4) reads 0.0898
For “BNIP3L mRNA, set 1”, ALX1 (ALX homeobox 1) shows 0.0484
Result of PTPRK (protein tyrosine phosphatase receptor type K) under “BNIP3L mRNA, set 1”: 0.0673

Next results follow.
| Target gene | BNIP3L mRNA, set 1 |
| --- | --- |
| TNFRSF21 (TNF receptor superfamily member 21) | 0.0822 |
| TMC6 (transmembrane channel like 6) | 0.162 |
| HSD17B3 (hydroxysteroid 17-beta dehydrogenase 3) | 0.0707 |
| CHI3L1 (chitinase 3 like 1) | 0.0963 |
| ETF1 (eukaryotic translation termination factor 1) | 0.126 |
| RAB34 (RAB34, member RAS oncogene family) | 0.276 |
| PRDM14 (PR/SET domain 14) | 0.225 |
| PRH2 (proline rich protein HaeIII subfamily 2) | 0.176 |
| SORL1 (sortilin related receptor 1) | 0.0878 |
| UTP23 (UTP23 small subunit processome component) | 0.18 |
| TAS2R19 (taste 2 receptor member 19) | 0.103 |
| FDPS (farnesyl diphosphate synthase) | 0.105 |
| LILRB1 (leukocyte immunoglobulin like receptor B1) | 0.0782 |
| HMGN5 (high mobility group nucleosome binding domain 5) | 0.142 |
| DDX6 (DEAD-box helicase 6) | 0.155 |
| ITGA11 (integrin subunit alpha 11) | 0.176 |
| TP53 (tumor protein p53) | 0.106 |
| MIIP (migration and invasion inhibitory protein) | 0.0809 |
| CWC25 (CWC25 spliceosome associated protein) | 0.123 |
| ZWILCH (zwilch kinetochore protein) | 0.127 |
| PSMD7 (proteasome 26S subunit, non-ATPase 7) | 0.143 |
| IBTK (inhibitor of Bruton tyrosine kinase) | 0.111 |
| IBTK (inhibitor of Bruton tyrosine kinase) | 0.0562 |
| KCNQ3 (potassium voltage-gated channel subfamily Q member 3) | 0.0684 |
| DAZAP1 (DAZ associated protein 1) | 0.0868 |
| NR3C2 (nuclear receptor subfamily 3 group C member 2) | 0.0448 |
| CMTM7 (CKLF like MARVEL transmembrane domain containing 7) | 0.167 |
| UTP15 (UTP15 small subunit processome component) | 0.299 |
